At least one structure is not confirmed: it was looked up by name or label, or the drawing left a doubt.
Tests used:
Caspase-11 = biological target: T1, Caspase-11 (Mus musculus, UniProt P70343); experiment: Bio-LPS pull-down, PAPC as competitor (Caspase-11); format: binding; settings: Biotin-LPS 5 μg per pull-down, PAPC 5, 50 and 500 μg
T1 sequence (P70343 81-373): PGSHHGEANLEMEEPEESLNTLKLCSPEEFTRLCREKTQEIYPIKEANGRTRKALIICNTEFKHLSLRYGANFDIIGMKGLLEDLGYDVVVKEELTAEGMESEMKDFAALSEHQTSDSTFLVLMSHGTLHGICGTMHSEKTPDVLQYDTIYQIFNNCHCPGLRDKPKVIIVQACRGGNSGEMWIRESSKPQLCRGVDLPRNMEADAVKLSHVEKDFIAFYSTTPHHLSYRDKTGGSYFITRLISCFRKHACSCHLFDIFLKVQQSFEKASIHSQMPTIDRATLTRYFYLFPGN

MD-2 = experiment: Bio-LPS pull-down, PAPC as competitor (MD-2); format: binding; settings: Biotin-LPS 5 μg per pull-down, PAPC 5, 50 and 500 μg

CCCCC/C=C\C/C=C\C/C=C\C/C=C\CCCC(=O)O[C@H](COC(=O)CCCCCCCCCCCCCCC)COP(=O)([O-])OCC[N+](C)(C)C [PAPC, 1-palmitoyl-2-arachidonyl-sn-glycero-3-phosphorylcholine]
ratio (LPS:PAPC) at which competition with LPS binding was effective (Caspase-11): 1:100 | ratio (LPS:PAPC) at which competition with LPS binding was effective (MD-2): 1:100
